This passage reports binding results from article PMC11519374.

By UniProt entry, the sequences of proteins in these tests, tags left out.
UniProt Q6IPX1: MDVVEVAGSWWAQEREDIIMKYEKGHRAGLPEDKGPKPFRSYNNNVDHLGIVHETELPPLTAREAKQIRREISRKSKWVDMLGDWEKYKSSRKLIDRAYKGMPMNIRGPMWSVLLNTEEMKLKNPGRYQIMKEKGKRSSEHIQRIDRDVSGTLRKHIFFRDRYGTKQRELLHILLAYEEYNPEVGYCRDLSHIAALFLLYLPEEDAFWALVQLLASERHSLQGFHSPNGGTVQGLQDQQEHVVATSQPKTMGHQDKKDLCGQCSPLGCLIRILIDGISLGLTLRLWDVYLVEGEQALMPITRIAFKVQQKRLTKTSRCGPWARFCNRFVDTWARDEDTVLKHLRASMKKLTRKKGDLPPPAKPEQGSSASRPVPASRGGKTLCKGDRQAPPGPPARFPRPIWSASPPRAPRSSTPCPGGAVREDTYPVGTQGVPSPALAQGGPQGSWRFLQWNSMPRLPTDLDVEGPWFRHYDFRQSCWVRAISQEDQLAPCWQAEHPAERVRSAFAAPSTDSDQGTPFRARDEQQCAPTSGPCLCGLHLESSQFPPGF
UniProt P63172: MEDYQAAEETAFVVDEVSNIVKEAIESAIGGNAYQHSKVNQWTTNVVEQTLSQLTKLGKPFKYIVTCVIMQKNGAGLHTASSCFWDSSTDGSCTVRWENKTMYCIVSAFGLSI

These are yes or no findings as the source states them, for the method shown. Binding seen in cells or lysates may run through a third protein. Some results given as binding are weak or reduced against the parent protein; the word gives no strength. For some of these results: Where a sequence is shown, tags or fusion partners need not be part of it.

The target in assay [1] is T1, GEF-H1 (human (endogenous in U2OS and HEK293A)) (UniProt Q92974).
T1 sequence: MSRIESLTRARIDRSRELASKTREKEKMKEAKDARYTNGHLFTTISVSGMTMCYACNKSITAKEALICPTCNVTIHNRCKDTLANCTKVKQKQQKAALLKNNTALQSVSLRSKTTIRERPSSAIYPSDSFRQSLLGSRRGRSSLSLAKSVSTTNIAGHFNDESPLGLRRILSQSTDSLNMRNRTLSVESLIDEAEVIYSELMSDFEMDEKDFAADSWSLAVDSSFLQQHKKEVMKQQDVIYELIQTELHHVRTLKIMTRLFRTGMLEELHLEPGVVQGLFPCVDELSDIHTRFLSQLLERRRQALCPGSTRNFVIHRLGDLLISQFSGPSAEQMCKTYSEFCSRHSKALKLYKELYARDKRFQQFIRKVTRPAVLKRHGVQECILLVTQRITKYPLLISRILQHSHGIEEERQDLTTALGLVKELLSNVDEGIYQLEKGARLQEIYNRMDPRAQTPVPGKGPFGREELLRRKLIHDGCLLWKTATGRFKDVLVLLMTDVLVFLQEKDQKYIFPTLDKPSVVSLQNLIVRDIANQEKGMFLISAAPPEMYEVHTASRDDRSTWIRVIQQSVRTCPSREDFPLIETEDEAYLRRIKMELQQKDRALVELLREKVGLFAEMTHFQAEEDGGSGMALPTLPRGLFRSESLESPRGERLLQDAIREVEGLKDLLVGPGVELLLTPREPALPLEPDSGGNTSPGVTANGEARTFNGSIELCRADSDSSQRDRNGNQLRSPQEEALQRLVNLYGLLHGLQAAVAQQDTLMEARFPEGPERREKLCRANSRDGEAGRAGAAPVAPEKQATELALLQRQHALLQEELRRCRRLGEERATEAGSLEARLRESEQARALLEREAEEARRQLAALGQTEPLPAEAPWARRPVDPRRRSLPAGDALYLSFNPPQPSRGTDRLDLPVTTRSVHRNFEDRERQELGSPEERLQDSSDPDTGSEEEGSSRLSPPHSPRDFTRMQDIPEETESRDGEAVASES
The assay is described as follows: co-IP; immunoprecipitation with GEF-H1 antibody from lysates of cells with or without induction of TBC1D3C or TBC1D3C-RD2A; immunoblot for Tctex, DIC and 14-3-3. (Immunoblotting shows a protein as a band on a membrane.)

Assay [2] addresses FLAG-TBC1D3C full-length (human) (UniProt Q6IPX1). The assay is described as follows: co-IP; HEK293T cells co-transfected with FLAG-TBC1D3C forms and Myc-GEF-H1 forms; immunoprecipitation with anti-FLAG M2 agarose beads, immunoblot with FLAG and Myc antibodies.

For the molecule Tctex-1 (from UniProt P63172 1-113), in assay [1], the binding result was “binds”.

Regarding “TBC1D3C (TetOn, Dox-induced) (from UniProt Q6IPX1 1-549)”, the binding entry in assay [1] is recorded as “binds”.

B1: Myc-GEF-H1 PH (domain or fragment, UniProt Q92974 472-571)
chain: KLIHDGCLLWKTATGRFKDVLVLLMTDVLVFLQEKDQKYIFPTLDKPSVVSLQNLIVRDIANQEKGMFLISAAPPEMYEVHTASRDDRSTWIRVIQQSVR
As for B1, the binding entry in assay [2] is recorded as “binds weakly”.

B2: Myc-GEF-H1 DH (domain or fragment, UniProt Q92974 235-432)
chain: KQQDVIYELIQTELHHVRTLKIMTRLFRTGMLEELHLEPGVVQGLFPCVDELSDIHTRFLSQLLERRRQALCPGSTRNFVIHRLGDLLISQFSGPSAEQMCKTYSEFCSRHSKALKLYKELYARDKRFQQFIRKVTRPAVLKRHGVQECILLVTQRITKYPLLISRILQHSHGIEEERQDLTTALGLVKELLSNVDEG
B2: the binding result in assay [2] is reported as “binds weakly”.
